The values below come from publication doi:10.1101/2022.08.09.503292.

For at least one entry, the source does not settle the construct or the ends of the probe. A weaker result is weaker than the reference pair of the same experiment.

In series [1] the test system is BRCA1-f-BARD1 221 A195Bpa. Briefly: competition with a labelled probe. The note with it: vs NCP185 Bpa crosslink.
For series [2], the system named is BRCA1-f-BARD1 221 W146Bpa. Briefly: competition with a labelled probe. The note with it: vs NCP185 Bpa crosslink.

In the case of “CCTACGACGCCTGGGGTACCAGCGCAATTGTGTACC (double strand) [36-mer dsDNA]”, the binding result in series [1] (less effective than bubble-DNA) and in series [2] (less effective than bubble-DNA) was “binds more weakly” throughout.
For “CCTACGACGCCTGGCTCTTTCCCGCAATTGTGTACC / GGTACACAATTGCGCTGGTACCCCAGGCGTCGTAGG [36-mer bubble-DNA]”, the binding result in series [1] and in series [2] was “binds” in each case.
